Measurements from the supplement of paper PMC10338343.
± gives the standard deviation. The list shows a part of the results, in another mix than the full data. Many of these values have a large error.

The sequences below were run on MILI (PIWIL2) piRISC loaded with L1MC piRNA (26 nt) (assay: pre-steady-state target cleavage rate (min^-1); MIWI and MILI are mouse PIWI proteins and EfPiwi is from a freshwater sponge; tags in brackets are library labels; higher = faster piRNA-guided slicing of the target). Conditions: guide: L1MC piRNA 5'p-UAACUAAAUACUAUGCAAGCUGUAGG; auxiliary factor: 500 nM mouse GTSF1.
Outline: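 The pre-steady-state cleavage rate was obtained by Cleave-'n-Seq with a burst-and-steady-state fit. A transcribed, DNA-blocked target RNA library (0.1 nM) was mixed with 1 nM active affinity-purified piRISC carrying one synthetic guide, with or without 500 nM GTSF1 partner protein, in HEPES–potassium acetate buffer at 33 °C for 0–8 or 0–960 min. Uncleaved targets were sequenced and normalised to depth and to weakly complementary targets, with three trials pooled and k3 capped at 0.0001 min^-1.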

Sequence	pre-steady-state target cleavage rate
UCCUGGAUGUCGUUGCAUAGAAUUUAGUAA	0.00115 ± 0.0061
UCCUGGAUGUGGCUUGCAUAGUAUUUAGUUA	0.163 ± 0.017
UCCUGGAUCAGCUUGCAUAGUUUUUAGAAA	0.0202 ± 0.0088
UCCUGCUACAGCUUGCAAAGAAUUUAGUUA	0.0168 ± 0.0052
UCCUGCUACAGCUUGCAUAGAAUUUACUUA	0.107 ± 0.031
UCCUGGAUCAGCUUGGAUAGUAUUUAGAUA	0.0949 ± 0.016
UCCUGGAUGUCCUUGAAUAGUAUUUAGUUA	0.122 ± 0.023
UCCUCCUACAGCUUGCAUAGUGUUUAGUUA	0.211 ± 0.017
UCCUGGUUGAGCUUGCAUAGUAUUUAGUUA	0.179 ± 0.017
UCCUCCUUGAGCUUGCAUAGUAUUUAGUUA	0.216 ± 0.018
UCCUGGAUCAGCUUGGAUAGUAUUAAGUUA	0.162 ± 0.027
UCCUGGAUGAGCUUGUAUAGUAUUUAGUUA	0.181 ± 0.015
UCCUGGAACAGCUUGCUUAGUAUUUAGAAA	0.142 ± 0.029
UCCUCCUACAGCCUUGCAUAGUAUUUAGUUA	0.262 ± 0.019
UCCUCCUACAGCUUGCAUACUAUAUAGUUA	0.0619 ± 0.015
UCCUGCUACAGCUUGGAUAGAAUUUAGUUA	0.0646 ± 0.014
UCCUGGAUCAGCUUGCAUAGAAUUUAGAAA	0.0123 ± 0.0052
UCCUGGAACUGCUUGCAUAGUAUUUAGAAA	0.103 ± 0.019
UCCUCCUACAGCUUGCAAAGUAUUAAGUUA	0.0872 ± 0.014
UCCUGCUACAGCUUGCAUAGUUAAUAGUUA	0.0263 ± 0.0097

Sequence	pre-steady-state target cleavage rate
UCCUGGAACAGGUUGCAUAGUAUAUAGUUA	0.211 ± 0.023
UCCUCCUACAGGUUGGAUAGUAUUUAGUUA	0.205 ± 0.012
UCCUGGAUCAGGUUGGAUAGUAUUUAGUUA	0.164 ± 0.013
UCCUGCAACAGCUUGCAUAGUAUUAAGUUA	0.344 ± 0.039
UCCUCCUACAGCUUGGAUAGUUUUUAGUUA	0.0664 ± 0.0092
UCCUGGAUCAGGCUUGCAUAGUAUUUAGUUA	0.213 ± 0.017
UCCUCGCUACAGCUUGCAUAGUAUUUAGUUA	0.276 ± 0.02
UCCUCCUACAGCGUGCAUAGUAUUUAGUUA	0.309 ± 0.021
UCCUGGAUGUCGUUCGCAUAGUAUUUAGUUA	0.101 ± 0.013
UCCUGGUACAGCUUGCUUAGUAAUUAGUUA	0.128 ± 0.036
UCCUGCUUGUGCUUGCAUAGUAUUUAGUUA	0.13 ± 0.017
UCCUCCAUCAGCUUGCAUAGUAUUUAGUAA	0.165 ± 0.024
UCCUGGAUGAGCUUGCAUAGUAUUUGGUUA	0.203 ± 0.025
UCCUCCAACAGCUUGCAUAGUAUUUAGAUA	0.192 ± 0.034
UCCUGGAUGUCCUUGCAUAGUAGUUAGUUA	0.13 ± 0.036
UCCUGCUACAGGUUGCAUAGUAUUUUGUUA	0.165 ± 0.028
UCCUGGUACAGCUUGCAAAGAAUUUAGUUA	0.00951 ± 0.0059
UCCUGGAACAGCAUGCAUAGUAUAUAGUUA	0.247 ± 0.025
UCCUGGAUCAGCUAGCAUAGUAUUUAGUAA	0.219 ± 0.012
UCCUGGAUGUGCUUGCAUAGUAUUUCGUUA	0.0261 ± 0.0098

Part of the list above, in markdown.

| Sequence | pre-steady-state target cleavage rate |
| --- | --- |
| UCCUCCAACAGCUUGCAUAGUAUUUAGAUA | 0.192 ± 0.034 |
| UCCUGGAUGUCCUUGCAUAGUAGUUAGUUA | 0.13 ± 0.036 |
